Results from patent EP2982983B1, “METHOD FOR DRUG SUSCEPTIBILITY TESTING OF MYCOBACTERIUM TUBERCULOSIS BY ELECTRON PARAMAGNETIC RESONANCE” (priority 2014, dated 2016).
“Also recorded” adds a separate entry of the source. For at least one compound, name, drawing or mass did not settle the structure.

What was measured:
[1] = tested on: isogenic rifampicin-resistant strain H37Rv-R; experiment: EPR spin probe (CPH) measurement of radicals in bacterial lysates after incubation with drug; type: cell-based, Mycobacterium tuberculosis; settings: compared with control without drug
[2] = tested on: rifampicin-resistant mutant strain 3063, a clinical isolate; experiment: as above; type: cell-based, Mycobacterium tuberculosis; settings: rifampicin 8 µg/ml (Cmax) for 24 hours, treated sample compared with control
[3] = tested on: rifampicin-resistant clinical isolate 7225; experiment: as above; type: cell-based, Mycobacterium tuberculosis; settings: rifampicin 8 µg/ml (Cmax) for 24 hours, compared with control
[4] = tested on: rifampicin-resistant clinical isolate 4164; experiment: as above; type: cell-based, Mycobacterium tuberculosis; settings: rifampicin 8 µg/ml (Cmax) for 24 hours, compared with control
H37Rv-R (ATCC 35838) = settings: cited from earlier work

CO[C@H]1/C=C/O[C@@]2(C)Oc3c(C)c(O)c4c(O)c(c(/C=N/N5CCN(C)CC5)c(O)c4c3C2=O)NC(=O)/C(C)=C\C=C\[C@H](C)[C@H](O)[C@@H](C)[C@@H](O)[C@@H](C)[C@H](OC(C)=O)[C@@H]1C [rifampicin]
rate of CP^• formation [1]: failed to show any increase
rate of CP^• formation [2]: practically the same; also recorded: no increase in radical induction
radical induction (rate of CP^• formation) [3]: no increase in radical induction
radical induction (rate of CP^• formation) [4]: no increase in radical induction
minimum inhibitory concentration (MIC) (H37Rv-R (ATCC 35838)): > 64 µg/mL
